Laboratory results as given in publication PMC6065395.
No constants are given. Whether binding was seen depends on the method and setting. Binding seen in cells or lysates may run through a third protein. A yes stands for co-enrichment or nearness to the bait. Other partners may have been found.

By UniProt entry, the sequences of proteins in these tests, tags left out. Where a name states a change or a piece, a line headed by the entry shows the natural chain unless it says otherwise.
UniProt Q5B358: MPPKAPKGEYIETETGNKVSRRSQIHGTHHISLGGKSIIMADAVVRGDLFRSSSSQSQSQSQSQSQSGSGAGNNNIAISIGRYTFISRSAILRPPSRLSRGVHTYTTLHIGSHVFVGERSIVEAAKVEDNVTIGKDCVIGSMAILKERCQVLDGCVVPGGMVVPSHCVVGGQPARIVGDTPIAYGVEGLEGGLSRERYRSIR
UniProt Q5BBF4: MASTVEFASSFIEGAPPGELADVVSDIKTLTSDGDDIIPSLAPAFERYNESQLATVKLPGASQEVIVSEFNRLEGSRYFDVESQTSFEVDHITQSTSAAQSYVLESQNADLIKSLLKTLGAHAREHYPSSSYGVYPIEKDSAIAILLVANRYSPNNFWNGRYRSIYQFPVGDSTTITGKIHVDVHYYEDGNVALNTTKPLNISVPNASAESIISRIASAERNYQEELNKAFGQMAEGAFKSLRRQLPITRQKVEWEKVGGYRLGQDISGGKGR
UniProt C8VS47: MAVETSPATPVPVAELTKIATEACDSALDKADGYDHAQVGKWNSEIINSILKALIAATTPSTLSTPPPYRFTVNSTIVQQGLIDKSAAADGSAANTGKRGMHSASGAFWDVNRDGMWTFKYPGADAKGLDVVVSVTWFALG
UniProt Q5BGP0: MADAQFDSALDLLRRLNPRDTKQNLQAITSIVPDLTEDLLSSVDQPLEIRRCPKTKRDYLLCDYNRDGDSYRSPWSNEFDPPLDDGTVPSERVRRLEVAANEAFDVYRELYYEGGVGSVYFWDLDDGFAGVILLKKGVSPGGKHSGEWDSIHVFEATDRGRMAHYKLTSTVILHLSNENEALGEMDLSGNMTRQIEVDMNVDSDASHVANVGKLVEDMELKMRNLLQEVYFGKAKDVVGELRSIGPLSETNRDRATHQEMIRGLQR
UniProt P45444: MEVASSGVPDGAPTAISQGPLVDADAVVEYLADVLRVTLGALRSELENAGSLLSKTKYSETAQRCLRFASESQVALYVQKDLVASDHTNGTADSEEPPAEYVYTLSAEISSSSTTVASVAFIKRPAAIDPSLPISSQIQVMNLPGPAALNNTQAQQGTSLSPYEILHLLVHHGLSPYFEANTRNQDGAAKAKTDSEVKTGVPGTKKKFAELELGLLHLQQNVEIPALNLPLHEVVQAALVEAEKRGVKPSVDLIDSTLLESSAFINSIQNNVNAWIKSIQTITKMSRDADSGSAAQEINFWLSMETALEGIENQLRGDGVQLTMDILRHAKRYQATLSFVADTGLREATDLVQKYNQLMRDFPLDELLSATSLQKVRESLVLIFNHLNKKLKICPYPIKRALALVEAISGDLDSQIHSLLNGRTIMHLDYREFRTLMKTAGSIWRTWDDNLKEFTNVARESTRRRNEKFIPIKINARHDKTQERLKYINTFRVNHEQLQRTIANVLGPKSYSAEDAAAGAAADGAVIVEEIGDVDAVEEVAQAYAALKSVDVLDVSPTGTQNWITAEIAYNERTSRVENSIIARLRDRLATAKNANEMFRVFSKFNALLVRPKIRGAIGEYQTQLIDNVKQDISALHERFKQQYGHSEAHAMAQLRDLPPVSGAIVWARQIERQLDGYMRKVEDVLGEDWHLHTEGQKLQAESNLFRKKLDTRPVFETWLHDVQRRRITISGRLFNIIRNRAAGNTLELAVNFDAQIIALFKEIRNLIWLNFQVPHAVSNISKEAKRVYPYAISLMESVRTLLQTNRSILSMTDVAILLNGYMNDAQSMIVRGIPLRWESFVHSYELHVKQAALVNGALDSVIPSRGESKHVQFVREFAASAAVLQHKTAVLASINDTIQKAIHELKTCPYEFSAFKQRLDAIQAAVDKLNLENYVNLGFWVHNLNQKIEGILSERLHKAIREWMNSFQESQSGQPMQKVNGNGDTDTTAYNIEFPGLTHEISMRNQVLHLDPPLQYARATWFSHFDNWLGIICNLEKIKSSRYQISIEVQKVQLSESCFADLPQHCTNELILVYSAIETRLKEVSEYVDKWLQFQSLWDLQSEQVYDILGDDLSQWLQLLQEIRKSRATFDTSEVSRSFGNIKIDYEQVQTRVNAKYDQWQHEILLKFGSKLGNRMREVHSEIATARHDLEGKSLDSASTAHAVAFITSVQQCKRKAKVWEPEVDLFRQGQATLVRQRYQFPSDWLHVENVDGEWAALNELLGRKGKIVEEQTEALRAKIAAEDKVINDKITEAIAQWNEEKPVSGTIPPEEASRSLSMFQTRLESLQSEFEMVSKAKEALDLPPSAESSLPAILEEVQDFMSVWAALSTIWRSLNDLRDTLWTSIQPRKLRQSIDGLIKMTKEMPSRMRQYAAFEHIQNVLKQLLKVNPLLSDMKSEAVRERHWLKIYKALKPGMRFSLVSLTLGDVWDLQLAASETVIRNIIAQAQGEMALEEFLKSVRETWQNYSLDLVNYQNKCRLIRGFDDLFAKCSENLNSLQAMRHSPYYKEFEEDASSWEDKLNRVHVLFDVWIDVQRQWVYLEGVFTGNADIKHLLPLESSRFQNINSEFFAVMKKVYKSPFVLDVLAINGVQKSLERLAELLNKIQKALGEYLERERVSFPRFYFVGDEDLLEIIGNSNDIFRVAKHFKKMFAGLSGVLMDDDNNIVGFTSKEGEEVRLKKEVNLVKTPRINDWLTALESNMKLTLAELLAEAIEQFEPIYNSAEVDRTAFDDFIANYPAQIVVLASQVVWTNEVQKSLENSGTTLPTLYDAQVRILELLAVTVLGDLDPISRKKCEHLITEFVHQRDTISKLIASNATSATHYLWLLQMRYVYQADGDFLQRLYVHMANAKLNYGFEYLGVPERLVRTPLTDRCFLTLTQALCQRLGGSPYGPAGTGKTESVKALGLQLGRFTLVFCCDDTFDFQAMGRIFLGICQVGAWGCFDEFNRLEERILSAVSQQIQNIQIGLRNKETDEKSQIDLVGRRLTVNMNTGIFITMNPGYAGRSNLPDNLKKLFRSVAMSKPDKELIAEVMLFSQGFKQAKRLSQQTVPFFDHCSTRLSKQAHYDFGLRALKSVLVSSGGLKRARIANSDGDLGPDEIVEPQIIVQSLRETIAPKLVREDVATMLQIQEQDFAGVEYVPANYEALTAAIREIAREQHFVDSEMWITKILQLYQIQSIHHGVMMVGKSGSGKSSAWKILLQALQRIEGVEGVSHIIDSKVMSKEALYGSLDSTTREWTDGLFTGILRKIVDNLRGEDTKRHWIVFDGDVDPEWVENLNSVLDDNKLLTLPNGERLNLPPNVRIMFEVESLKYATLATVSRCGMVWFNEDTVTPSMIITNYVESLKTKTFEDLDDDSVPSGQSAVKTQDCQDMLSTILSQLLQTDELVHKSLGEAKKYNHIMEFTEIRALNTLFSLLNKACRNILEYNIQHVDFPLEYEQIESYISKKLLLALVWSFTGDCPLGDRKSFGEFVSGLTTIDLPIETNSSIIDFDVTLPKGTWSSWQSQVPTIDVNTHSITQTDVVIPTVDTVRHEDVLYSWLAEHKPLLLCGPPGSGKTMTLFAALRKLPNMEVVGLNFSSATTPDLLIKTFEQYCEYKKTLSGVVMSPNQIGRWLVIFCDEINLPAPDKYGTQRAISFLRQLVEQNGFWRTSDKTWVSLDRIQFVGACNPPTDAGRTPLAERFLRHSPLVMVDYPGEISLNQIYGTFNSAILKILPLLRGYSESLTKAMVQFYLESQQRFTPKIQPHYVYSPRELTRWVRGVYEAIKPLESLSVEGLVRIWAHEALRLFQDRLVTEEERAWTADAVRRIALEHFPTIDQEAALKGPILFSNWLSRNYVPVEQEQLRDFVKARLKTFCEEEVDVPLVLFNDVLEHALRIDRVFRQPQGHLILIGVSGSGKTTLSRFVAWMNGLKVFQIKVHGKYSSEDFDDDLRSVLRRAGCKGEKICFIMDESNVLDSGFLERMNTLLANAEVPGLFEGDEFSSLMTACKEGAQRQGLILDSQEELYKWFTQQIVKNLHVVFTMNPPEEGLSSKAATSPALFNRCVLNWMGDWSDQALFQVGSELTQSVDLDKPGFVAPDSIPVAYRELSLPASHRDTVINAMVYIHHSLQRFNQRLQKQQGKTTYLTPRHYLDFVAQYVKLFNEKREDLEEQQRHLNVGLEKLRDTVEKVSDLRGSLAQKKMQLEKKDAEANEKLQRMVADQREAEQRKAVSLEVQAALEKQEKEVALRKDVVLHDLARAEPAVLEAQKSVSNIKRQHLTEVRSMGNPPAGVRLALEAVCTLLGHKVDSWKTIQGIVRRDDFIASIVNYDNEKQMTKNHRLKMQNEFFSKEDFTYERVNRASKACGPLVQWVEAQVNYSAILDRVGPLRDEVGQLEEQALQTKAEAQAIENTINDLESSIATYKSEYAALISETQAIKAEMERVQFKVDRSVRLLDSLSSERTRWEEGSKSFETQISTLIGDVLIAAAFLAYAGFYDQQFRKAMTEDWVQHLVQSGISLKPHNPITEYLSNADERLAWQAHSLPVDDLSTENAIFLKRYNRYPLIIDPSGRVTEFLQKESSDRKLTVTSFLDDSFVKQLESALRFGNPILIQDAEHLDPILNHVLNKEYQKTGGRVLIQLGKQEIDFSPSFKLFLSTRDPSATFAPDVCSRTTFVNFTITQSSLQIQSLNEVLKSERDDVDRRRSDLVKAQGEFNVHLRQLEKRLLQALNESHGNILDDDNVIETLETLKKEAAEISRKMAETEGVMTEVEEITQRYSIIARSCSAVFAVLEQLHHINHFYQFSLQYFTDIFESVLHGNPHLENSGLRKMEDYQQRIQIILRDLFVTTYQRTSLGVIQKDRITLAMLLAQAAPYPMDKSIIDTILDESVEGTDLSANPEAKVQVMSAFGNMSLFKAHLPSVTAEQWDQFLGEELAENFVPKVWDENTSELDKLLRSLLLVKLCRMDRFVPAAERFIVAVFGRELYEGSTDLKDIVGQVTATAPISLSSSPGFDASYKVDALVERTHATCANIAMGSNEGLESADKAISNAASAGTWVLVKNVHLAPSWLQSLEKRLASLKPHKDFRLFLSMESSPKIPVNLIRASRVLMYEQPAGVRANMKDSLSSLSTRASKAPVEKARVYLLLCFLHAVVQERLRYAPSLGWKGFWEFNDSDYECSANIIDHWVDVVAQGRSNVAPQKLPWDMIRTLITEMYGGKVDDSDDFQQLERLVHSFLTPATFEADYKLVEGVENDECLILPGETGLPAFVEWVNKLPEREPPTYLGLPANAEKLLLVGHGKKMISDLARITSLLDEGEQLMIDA

Tests used:
[1] = target: p25-GFP fusion protein (A. nidulans) (UniProt Q5B358); assay: affinity purification with mass spectrometry; p25-GFP held on anti-GFP MicroBeads (μMACS) from extract of the p25-GFP strain in the ∆C-HookA-S background; 50 mM Tris-HCl pH 8.0, 4 °C, 30 minutes; strain without GFP tag as negative control
[2] = target: CapA-GFP fusion (A. nidulans) (UniProt Q5BBF4); assay: affinity purification with mass spectrometry; CapA-GFP held on anti-GFP MicroBeads (μMACS) from extract of the CapA-GFP strain in the ∆hookA background; 50 mM Tris-HCl pH 8.0, 4 °C, 30 minutes

binding [1]	binding [2]	Substance
binds		Dynein TctexA (from UniProt C8VS47)
binds		capping protein alpha (CapA) (from UniProt Q5BBF4)
binds	binds	capping protein beta (CapB) (from UniProt Q5BGP0)
	binds	dynein heavy chain (HC) (from UniProt P45444 1-4345)
